Measurements reported in PubChem BioAssay AID1259308 (NCATS, 2017)
The whole screen tested about 59,000 reagents; this is a part drawn at random. Of all reagents, about 1,510 (2.6%) are marked active. 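Calls use total luciferase alone and ignore viability, so some active siRNAs may act by altering cell number.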 Entries without a mark were called inactive. Reagents against one gene are numbered here.

Purpose: 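Candidate targets for better recombinant protein yield in mammalian cells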 (primary screen)
Cell system: human HEK293 embryonic kidney cells stably expressing firefly luciferase (HEK-CMV-Luc2-Hygro)
Reagents: single siRNA against human genes, 0.8 pmol siRNA per well
Timing: 72 h
Detection: 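Luciferase light (ONE-Glo) measured on one replicate plate set and viability (CellTiter-Glo) on the other, scaled to a negative control siRNA, with robust z-scores and luciferase per cell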
Reading the numbers: total luciferase, z-score and total luciferase, % of control: higher = more reporter protein produced; luciferase per cell, z-score: higher = more reporter output per viable cell; viable cells, % of control: higher = more viable cells
Active means: 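An siRNA counts as active if its total luciferase robust z-score exceeds 3; genes with two or more such siRNAs out of three were retested with fresh siRNAs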
Meaning of the calls: active = raised luciferase; inactive = no rise

gene	reagent	total luciferase, z-score	total luciferase, % of control	luciferase per cell, z-score	viable cells, % of control
EPHA5 (EPH receptor A5)	1	-0.771	66.5	-0.526	85.4
EPHA5 (EPH receptor A5)	2	-0.33	75.3	-1.04	111
EPHA5 (EPH receptor A5)	3	-0.405	73.8	-0.402	91.7
ACKR4 (atypical chemokine receptor 4)	1	0.547	92.8	0.616	88.2
ACKR4 (atypical chemokine receptor 4)	2	-1.21	57.7	-1.96	108
ACKR4 (atypical chemokine receptor 4)	3	-1.55	51	-2.01	96.6
SELENOW (selenoprotein W)	1	1.23	106	2.93	54.9
SELENOW (selenoprotein W)	2	-0.0887	80.1	-0.187	94.1
SELENOW (selenoprotein W)	3	-1.29	56.2	-1.33	89.2
ARSK (arylsulfatase family member K)	1	-0.199	77.9	0.112	84.6
ARSK (arylsulfatase family member K)	2	-1.65	49	-1.72	86
ARSK (arylsulfatase family member K)	3	-1.62	49.6	-0.597	64.9
TPCN1 (two pore segment channel 1)	1	-0.539	71.2	-0.37	87.7
TPCN1 (two pore segment channel 1)	2	0.208	86	-0.147	99.9
TPCN1 (two pore segment channel 1)	3	-0.155	78.8	-1.24	122
MARCKS (myristoylated alanine rich protein kinase C substrate)	1	-0.276	76.4	-0.0661	86.9
MARCKS (myristoylated alanine rich protein kinase C substrate)	2	1.37	109	0.773	99.4
MARCKS (myristoylated alanine rich protein kinase C substrate)	3	-0.00746	81.7	-0.804	113
CNTNAP3 (contactin associated protein family member 3)	1	-0.127	79.4	-0.235	94.3
CNTNAP3 (contactin associated protein family member 3)	2	-1.5	52.1	-1.84	94.4
CNTNAP3 (contactin associated protein family member 3)	3	-2	42.1	-0.648	55.8
P2RY1 (purinergic receptor P2Y1)	1	0.534	92.5	3.36	42.7
P2RY1 (purinergic receptor P2Y1)	2	0.264	87.1	-0.396	108
P2RY1 (purinergic receptor P2Y1)	3	-1.13	59.5	0.287	61.7
ZFP37 (ZFP37 zinc finger protein)	1	-0.145	79	0.0687	86.7
ZFP37 (ZFP37 zinc finger protein)	2	-1.75	47.1	-0.945	67.6
ZFP37 (ZFP37 zinc finger protein)	3	0.787	97.5	0.96	84.7
PDPK1 (3-phosphoinositide dependent protein kinase 1)	1	1.54	113	2.67	62.3
PDPK1 (3-phosphoinositide dependent protein kinase 1)	2	0.000376	81.9	-0.212	96.8
PDPK1 (3-phosphoinositide dependent protein kinase 1)	3	-0.0466	81	0.146	87.1
KDM6B (lysine demethylase 6B)	1	0.728	96.4	1.13	80
KDM6B (lysine demethylase 6B)	2	2.76	137	1.91	92.4
KDM6B (lysine demethylase 6B)	3	-1.08	60.3	-0.676	80.6
AGR3	1	-0.117	79.6	-0.588	104
AGR3	2	-0.337	75.2	-0.427	94
AGR3	3	1	102	0.384	103
BCLAF3 (BCLAF1 and THRAP3 family member 3)	1	1.83	118	1.1	99.1
BCLAF3 (BCLAF1 and THRAP3 family member 3)	2	0.208	86	-0.0249	96.8
BCLAF3 (BCLAF1 and THRAP3 family member 3)	3	-0.713	67.7	-0.782	93
DRAXIN (dorsal inhibitory axon guidance protein)	1	-0.454	72.9	-0.478	92.3
DRAXIN (dorsal inhibitory axon guidance protein)	2	0.0737	83.4	0.0786	91.2
DRAXIN (dorsal inhibitory axon guidance protein)	3	-0.171	78.5	0.161	84.1
DHRS2 (dehydrogenase/reductase 2)	1	3.16 (active)	145	1.65	105
DHRS2 (dehydrogenase/reductase 2)	2	2.52	132	2.18	83.1
DHRS2 (dehydrogenase/reductase 2)	3	-0.0815	80.3	0.431	80.1
TEX13A (testis expressed 13A)	1	0.966	101	0.334	103
TEX13A (testis expressed 13A)	2	1.43	110	1.32	87
TEX13A (testis expressed 13A)	3	1.16	105	1.38	81.6
TONSL (tonsoku like, DNA repair protein)	1	0.212	86.1	-0.848	120
TONSL (tonsoku like, DNA repair protein)	2	-2.08	40.4	-0.638	53.4
TONSL (tonsoku like, DNA repair protein)	3	1.85	119	1.98	78.6
RBM46 (RNA binding motif protein 46)	1	-0.196	78	-0.86	109
RBM46 (RNA binding motif protein 46)	2	2.12	124	1.86	84.8
RBM46 (RNA binding motif protein 46)	3	2.46	131	1.08	110
HGFAC (HGF activator)	1	-0.755	66.9	-0.689	89.6
HGFAC (HGF activator)	2	-2.11	39.9	-2.24	80.5
HGFAC (HGF activator)	3	-0.839	65.2	-0.509	83.3

Hits, of those listed so far:
gene	reagent	total luciferase, z-score	total luciferase, % of control	luciferase per cell, z-score	viable cells, % of control
DHRS2 (dehydrogenase/reductase 2)	1	3.16 (active)	145	1.65	105
